Test results from publication doi:10.1101/2022.04.08.487625.
No constants are given. Whether binding was seen depends on the method and setting. In cells and extracts the contact can be indirect. Some results given as binding are weak or reduced against the parent protein; the word gives no strength.

The chains behind the UniProt entries cited, without tags or fusion partners.
UniProt P35637: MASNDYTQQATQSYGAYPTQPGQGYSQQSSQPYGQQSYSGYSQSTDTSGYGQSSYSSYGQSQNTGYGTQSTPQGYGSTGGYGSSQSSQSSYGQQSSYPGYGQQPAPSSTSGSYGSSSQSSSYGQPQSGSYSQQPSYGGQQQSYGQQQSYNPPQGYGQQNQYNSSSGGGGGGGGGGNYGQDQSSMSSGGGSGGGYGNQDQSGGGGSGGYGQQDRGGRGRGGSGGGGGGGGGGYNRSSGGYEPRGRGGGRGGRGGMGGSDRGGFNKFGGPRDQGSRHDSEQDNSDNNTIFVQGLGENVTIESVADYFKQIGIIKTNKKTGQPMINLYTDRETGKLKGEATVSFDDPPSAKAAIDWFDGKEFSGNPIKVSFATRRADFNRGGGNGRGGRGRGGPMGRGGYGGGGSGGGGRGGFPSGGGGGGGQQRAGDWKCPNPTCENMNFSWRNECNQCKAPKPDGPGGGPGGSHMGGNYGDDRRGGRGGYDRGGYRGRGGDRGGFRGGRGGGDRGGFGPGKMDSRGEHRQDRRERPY
UniProt P04406: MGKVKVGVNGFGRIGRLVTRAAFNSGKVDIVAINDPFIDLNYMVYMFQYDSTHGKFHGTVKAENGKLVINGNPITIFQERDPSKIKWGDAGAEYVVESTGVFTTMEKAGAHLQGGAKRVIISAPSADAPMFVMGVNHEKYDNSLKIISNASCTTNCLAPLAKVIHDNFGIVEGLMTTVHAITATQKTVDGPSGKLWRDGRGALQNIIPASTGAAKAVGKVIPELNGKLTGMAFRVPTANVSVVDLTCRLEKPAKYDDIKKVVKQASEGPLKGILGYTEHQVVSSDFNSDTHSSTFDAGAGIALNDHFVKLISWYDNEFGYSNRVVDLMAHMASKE

Tests used:
[1] = molecular target: FUS (human (endogenous in HeLa)) (UniProt P35637); assay: proximity ligation
[2] = molecular target: GAPDH (human (endogenous in HeLa)) (UniProt P04406); assay: proximity ligation

B1: RNase H1 (enzyme, UniProt O60930 1-286)
chain: MSWLLFLAHRVALAALPCRRGSRGFGMFYAVRRGRKTGVFLTWNECRAQVDRFPAARFKKFATEDEAWAFVRKSASPEVSEGHENQHGQESEAKASKRLREPLDGDGHESAEPYAKHMKPSVEPAPPVSRDTFSYMGDFVVVYTDGCCSSNGRRRPRAGIGVYWGPGHPLNVGIRLPGRQTNQRAEIHAACKAIEQAKTQNINKLVLYTDSMFTINGITNWVQGWKKNGWKTSAGKEVINKEDFVALERLTQGMDIQWMHVPGHSGFIGNEEADRLAREGAKQSED
[1]
  binding: binds
[2]
  binding: no binding
